Data reported in publication PMC8799692.

The chains behind the UniProt entries cited, without tags or fusion partners. Where a name states a change or a piece, a line headed by the entry shows the natural chain unless it says otherwise. Residues count along the entry.
UniProt P15056: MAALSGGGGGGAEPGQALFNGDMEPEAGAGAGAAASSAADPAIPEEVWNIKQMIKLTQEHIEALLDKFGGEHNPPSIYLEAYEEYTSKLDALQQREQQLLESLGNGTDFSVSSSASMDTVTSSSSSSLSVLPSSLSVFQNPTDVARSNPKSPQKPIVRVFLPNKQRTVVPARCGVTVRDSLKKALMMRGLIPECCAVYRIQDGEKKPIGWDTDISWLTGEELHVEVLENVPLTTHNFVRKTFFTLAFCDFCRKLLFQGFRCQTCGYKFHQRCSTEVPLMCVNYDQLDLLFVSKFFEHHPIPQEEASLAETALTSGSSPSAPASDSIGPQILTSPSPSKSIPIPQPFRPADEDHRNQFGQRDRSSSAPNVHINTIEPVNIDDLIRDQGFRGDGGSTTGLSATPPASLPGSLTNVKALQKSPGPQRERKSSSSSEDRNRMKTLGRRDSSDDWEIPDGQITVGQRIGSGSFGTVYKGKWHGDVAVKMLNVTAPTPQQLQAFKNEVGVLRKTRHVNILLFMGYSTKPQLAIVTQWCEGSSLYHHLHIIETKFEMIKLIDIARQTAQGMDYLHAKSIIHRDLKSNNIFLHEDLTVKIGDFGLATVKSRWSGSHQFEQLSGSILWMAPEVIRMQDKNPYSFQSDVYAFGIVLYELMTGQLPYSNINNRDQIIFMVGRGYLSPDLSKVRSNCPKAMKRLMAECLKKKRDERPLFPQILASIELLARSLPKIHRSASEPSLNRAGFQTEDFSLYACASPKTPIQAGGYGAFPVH
flag-Cter-BRAF: residues 457-717 of P15056
UniProt P28028: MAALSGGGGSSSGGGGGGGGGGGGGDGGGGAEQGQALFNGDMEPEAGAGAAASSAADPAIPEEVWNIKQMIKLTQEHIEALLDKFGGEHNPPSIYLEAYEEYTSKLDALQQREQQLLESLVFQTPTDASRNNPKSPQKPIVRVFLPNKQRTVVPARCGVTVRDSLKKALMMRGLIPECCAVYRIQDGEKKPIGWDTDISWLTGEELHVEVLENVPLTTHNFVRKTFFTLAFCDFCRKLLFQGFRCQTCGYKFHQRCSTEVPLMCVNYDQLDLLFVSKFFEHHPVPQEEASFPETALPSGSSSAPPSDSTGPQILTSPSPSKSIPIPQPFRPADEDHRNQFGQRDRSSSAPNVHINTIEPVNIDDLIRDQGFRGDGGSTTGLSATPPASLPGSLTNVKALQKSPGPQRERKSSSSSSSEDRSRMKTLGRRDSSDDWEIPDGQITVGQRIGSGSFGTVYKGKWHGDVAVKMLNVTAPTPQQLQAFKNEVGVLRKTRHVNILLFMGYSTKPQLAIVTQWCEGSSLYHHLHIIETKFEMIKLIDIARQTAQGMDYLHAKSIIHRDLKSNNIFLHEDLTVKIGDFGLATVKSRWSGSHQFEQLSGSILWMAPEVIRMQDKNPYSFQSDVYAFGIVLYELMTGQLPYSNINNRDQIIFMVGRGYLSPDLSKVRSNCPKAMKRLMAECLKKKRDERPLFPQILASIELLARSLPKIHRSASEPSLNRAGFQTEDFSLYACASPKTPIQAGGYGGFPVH

Legend:
myc-BRAF^V600E = myc-BRAF^V600E (UniProt P15056); assay: co-IP; HEK293T cotransfected with tagged MITF and one tagged RAF construct; NP40 buffer lysates precipitated overnight at 4 °C with anti-HA, anti-Flag or anti-Myc and protein-G magnetic beads
myc-BRAF^WT = myc-BRAF^WT (UniProt P15056); assay: as above
[1] = molecular target: T1, human recombinant flag-ARAF (human) (UniProt P10398); assay: co-IP; in vitro: 15 ng human recombinant MITF incubated overnight at 4 °C in NP40 Buffer with 75 ng human recombinant flag-ARAF and anti-flag magnetic beads; both purified
T1 sequence: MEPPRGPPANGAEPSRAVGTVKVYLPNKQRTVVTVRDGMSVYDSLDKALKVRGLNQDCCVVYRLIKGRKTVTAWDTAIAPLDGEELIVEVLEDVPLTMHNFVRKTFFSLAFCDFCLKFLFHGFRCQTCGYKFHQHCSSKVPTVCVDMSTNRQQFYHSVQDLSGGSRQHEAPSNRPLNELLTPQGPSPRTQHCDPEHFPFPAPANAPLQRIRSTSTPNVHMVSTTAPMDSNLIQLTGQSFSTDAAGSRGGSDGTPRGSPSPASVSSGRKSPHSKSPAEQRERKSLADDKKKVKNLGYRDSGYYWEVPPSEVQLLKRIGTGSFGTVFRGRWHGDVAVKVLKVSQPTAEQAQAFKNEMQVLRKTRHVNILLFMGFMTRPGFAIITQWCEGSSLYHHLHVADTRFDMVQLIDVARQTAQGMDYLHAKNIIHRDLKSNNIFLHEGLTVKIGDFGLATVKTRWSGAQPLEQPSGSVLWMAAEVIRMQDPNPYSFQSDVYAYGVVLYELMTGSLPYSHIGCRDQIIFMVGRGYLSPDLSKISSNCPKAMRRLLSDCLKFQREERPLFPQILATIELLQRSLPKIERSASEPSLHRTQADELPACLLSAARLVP

[2] = molecular target: T2, ARAF (mouse (endogenous in NRAS-mutated murine melanoma cells)) (UniProt P04627); assay: proximity ligation; Duolink PLA on fixed, permeabilized NRAS-mutated murine melanoma cells (ARAF-only cells for ARAF/MITF), antibodies against the endogenous RAF protein and MITF
T2 sequence: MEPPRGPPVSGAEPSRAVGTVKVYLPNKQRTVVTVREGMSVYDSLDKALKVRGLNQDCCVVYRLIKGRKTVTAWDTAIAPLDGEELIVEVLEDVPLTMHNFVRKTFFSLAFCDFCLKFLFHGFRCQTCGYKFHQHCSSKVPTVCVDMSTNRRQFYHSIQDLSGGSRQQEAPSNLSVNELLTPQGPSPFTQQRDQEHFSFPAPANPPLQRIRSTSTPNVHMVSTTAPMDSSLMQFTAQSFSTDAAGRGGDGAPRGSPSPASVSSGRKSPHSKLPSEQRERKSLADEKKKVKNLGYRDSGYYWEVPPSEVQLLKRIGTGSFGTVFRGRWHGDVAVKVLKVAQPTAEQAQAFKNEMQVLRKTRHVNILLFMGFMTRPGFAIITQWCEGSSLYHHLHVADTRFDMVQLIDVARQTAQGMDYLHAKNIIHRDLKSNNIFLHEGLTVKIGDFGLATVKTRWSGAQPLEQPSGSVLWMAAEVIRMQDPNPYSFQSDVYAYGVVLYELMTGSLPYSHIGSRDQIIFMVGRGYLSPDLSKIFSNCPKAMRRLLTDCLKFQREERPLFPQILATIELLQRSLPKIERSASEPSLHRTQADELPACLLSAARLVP

[3] = molecular target: CRAF (mouse (endogenous in NRAS-mutated murine melanoma cells)) (UniProt Q99N57); assay: as above
[4] = molecular target: BRAF (mouse (endogenous in NRAS-mutated murine melanoma cells)) (UniProt P28028); assay: as above
[5] = molecular target: T2, ARAF (mouse (endogenous in NRAS-mutated murine melanoma cells)); assay: co-IP; endogenous proteins; ARAF-only mouse melanoma cell lysates incubated overnight at 4 °C with anti-ARAF antibody and protein-A magnetic beads; blot with anti-MITF
flag-Cter-BRAF [6] = molecular target: flag-Cter-BRAF (UniProt P15056); assay: co-IP; HEK293T cotransfected with myc-MITF and both HA-Nter-BRAF and flag-Cter-BRAF; lysates precipitated with anti-flag or anti-HA
HA-BRAF = HA-BRAF (UniProt P15056); assay: co-IP; HEK293T cotransfected with tagged MITF and one tagged RAF construct; NP40 buffer lysates precipitated overnight at 4 °C with anti-HA, anti-Flag or anti-Myc and protein-G magnetic beads
HA-CRAF = HA-CRAF (UniProt P04049); assay: as above
flag-Cter-BRAF [7] = molecular target: flag-Cter-BRAF (UniProt P15056); assay: as above
HA-ARAF = molecular target: T3, HA-ARAF (UniProt P10398); assay: as above
T3 sequence: T1 sequence

binding (myc-BRAF^V600E): binds | binding (myc-BRAF^WT): binds
Substance: HA-MITF (from UniProt O75030-9)

binding [1]: binds
Substance: human recombinant MITF protein

binding [2]: binds | binding [3]: binds | binding [4]: binds | binding [5]: binds
Substance: Microphtalmia-associated transcription factor (MITF) (from UniProt Q08874-8)

binding (flag-Cter-BRAF [6]): binds | binding (HA-BRAF): binds | binding (HA-CRAF): binds | binding (flag-Cter-BRAF [7]): binds | binding (HA-ARAF): binds
Substance: myc-MITF (from UniProt O75030-9)

Results are given in words; binding and its absence hold for the method and conditions named. Binding seen in cells or lysates may run through a third protein. A result given as binding can be weak or reduced; the word gives no strength. For part of these data: Sequences can lack the tags named with a protein. One block for each substance: values may come before it.
